Results are given in words; binding and its absence hold for the method and conditions named. Some results given as binding are weak or reduced against the parent protein; the word gives no strength.
Biological target: T1, Ref2-3C-SII (yeast) (UniProt P42073)
T1 sequence: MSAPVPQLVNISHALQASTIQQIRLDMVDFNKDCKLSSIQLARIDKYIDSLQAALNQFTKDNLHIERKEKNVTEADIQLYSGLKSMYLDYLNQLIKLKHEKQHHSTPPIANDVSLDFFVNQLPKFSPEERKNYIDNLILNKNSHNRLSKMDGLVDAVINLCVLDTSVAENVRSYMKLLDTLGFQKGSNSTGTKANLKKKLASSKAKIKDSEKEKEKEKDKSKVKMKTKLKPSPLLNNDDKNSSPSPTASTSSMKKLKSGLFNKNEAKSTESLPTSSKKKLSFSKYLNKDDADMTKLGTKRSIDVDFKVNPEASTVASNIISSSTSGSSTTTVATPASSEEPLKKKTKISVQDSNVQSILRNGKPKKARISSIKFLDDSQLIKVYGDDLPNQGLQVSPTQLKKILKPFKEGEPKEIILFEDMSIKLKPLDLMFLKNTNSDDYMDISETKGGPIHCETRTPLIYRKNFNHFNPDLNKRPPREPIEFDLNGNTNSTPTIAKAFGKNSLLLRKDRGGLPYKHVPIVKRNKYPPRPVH
Assay: co-purification (StrepTactin affinity, anion exchange, size exclusion); StrepII tag on Ref2 as bait; Sf9 cells co-infected with two baculoviruses (nuclease and polymerase modules; phosphatase module); purified complex analysed by SDS-PAGE

The chains behind the UniProt entries cited, without tags or fusion partners.
UniProt P32598: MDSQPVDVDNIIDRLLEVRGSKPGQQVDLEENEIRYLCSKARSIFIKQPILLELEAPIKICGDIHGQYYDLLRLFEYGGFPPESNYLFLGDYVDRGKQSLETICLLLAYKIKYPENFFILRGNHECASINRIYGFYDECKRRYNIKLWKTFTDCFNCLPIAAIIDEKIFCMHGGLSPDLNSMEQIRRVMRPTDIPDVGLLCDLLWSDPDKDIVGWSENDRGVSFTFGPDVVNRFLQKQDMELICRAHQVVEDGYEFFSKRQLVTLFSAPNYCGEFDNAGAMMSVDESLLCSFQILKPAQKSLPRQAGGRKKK
UniProt P53538: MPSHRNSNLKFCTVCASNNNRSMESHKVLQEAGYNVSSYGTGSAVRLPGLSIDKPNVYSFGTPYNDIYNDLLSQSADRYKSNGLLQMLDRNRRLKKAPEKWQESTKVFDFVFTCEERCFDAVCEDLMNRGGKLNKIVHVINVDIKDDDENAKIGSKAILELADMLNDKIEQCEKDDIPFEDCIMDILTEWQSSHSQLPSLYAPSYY

| Substance | binding |
| --- | --- |
| Glc7 (from UniProt P32598 1-312) (enzyme) | binds |
| Ssu72 (from UniProt P53538 1-206) (enzyme) | binds |

From PMC8559680
